# Measurements as given in paper PMC10946153.
# The chains behind the UniProt entries cited, without tags or fusion partners.
# UniProt Q9BXK5: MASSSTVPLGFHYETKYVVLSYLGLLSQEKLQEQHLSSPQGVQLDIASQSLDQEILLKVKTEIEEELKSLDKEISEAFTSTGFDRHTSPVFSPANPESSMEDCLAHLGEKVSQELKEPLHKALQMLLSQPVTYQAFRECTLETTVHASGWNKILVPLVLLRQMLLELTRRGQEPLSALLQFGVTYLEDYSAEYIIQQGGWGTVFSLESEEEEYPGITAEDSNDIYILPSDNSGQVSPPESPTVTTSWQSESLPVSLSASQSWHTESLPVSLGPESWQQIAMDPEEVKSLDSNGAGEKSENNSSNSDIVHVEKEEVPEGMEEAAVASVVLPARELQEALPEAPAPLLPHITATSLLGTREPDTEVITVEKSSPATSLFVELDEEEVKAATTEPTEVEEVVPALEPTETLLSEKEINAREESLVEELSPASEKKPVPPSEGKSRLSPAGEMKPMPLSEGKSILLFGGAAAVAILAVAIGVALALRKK
# No constants are given. Whether binding was seen depends on the method and setting. Binding seen in cells or lysates may run through a third protein. Here binding means that the protein was enriched with, or labelled near, the bait; the list need not be complete.
# Target: T1, Yeast mitochondrial escape 1-like 1 (YME1L) (human (endogenous in HK2)) (UniProt Q96TA2)
# T1 sequence: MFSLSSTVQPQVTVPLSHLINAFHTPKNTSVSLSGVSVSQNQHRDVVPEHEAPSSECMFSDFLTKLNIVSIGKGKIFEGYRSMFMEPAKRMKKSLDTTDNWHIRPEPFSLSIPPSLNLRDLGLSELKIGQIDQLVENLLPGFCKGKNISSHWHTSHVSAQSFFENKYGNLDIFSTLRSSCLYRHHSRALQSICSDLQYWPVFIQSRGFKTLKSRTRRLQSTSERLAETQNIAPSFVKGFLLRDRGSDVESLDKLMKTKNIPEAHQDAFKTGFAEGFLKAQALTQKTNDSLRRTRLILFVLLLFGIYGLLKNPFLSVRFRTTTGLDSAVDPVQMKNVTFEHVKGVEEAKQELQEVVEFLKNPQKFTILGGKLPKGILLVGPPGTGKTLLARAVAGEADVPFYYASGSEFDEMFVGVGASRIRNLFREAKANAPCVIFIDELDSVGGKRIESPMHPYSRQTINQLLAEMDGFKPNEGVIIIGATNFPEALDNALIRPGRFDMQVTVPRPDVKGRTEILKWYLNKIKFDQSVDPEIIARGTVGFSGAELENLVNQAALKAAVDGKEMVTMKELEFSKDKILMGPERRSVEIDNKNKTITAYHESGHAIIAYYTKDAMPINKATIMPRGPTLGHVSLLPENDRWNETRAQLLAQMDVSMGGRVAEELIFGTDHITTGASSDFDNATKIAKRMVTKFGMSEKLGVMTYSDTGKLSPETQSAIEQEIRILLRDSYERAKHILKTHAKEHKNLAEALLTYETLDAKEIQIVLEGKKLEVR
# Test: affinity purification with mass spectrometry; IP from HK2 cell lysates (NG control and HG groups) with YME1L antibody or IgG as negative control; SDS-PAGE, silver staining, in-gel digestion, LC-MS/MS
substance,measurement,value
BCL2-like 13 (BCL2L13) (from UniProt Q9BXK5 1-485),binding,binds
